The text below walks through data of publication doi:10.1101/298455 (bioRxiv, 2018).

Sequences of proteins named here, by UniProt entry; tags and fusion partners are left off.
UniProt Q03389: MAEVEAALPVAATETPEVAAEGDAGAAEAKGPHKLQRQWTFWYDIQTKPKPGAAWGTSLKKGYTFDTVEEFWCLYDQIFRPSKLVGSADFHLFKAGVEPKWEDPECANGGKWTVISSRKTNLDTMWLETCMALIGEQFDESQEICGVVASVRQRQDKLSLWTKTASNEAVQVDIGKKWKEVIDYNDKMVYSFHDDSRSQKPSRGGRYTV

This assay deals with wheat eIF(iso)4E (wheat) (UniProt Q03389). Description: ELISA. A general note: ELISA stands for enzyme-linked immunosorbent assay.

Results are given in words; binding and its absence hold for the method and conditions named. Some entries that bind do so weakly or less than the wild type. Tags and fused reporters may be left off the sequences shown.

With RKKGKGKGTTVGMGKSSRRFINMYGF [GST-VPg5 fusion protein], the binding entry is “binds”.
